Reference: patent US20220112180, “NOVEL COMPOUNDS AS POTENTIAL THERAPEUTIC AGENTS TARGETING VARIOUS NEURODEGENERATIVE DISEASES” (The Hong Kong University of Science and Technology, published 2022)

System: hnRNP F RRM domain
Experiment: binding assay
Details: 1H-15N HSQC NMR titration at 1:1; binding sites almost all blocked by compound cA (1:10:1); 20 mM potassium phosphate, 70 mM KCl, pH 7.0, 25 C; purified recombinant protein; folded or branched DNA

“GGGGCCGGGGCCGGGGCCGGGGCC [DNA (G4C2)4 G4]”: binds.

Construct, isoform or probe ends are uncertain for at least one entry.
